{
  "source": "the supplement of paper PMC8728848",
  "binders": {"B1": {"name": "RobpsCRA (Robinia pseudoacacia) (protein)", "chain": "IKGGYWYSGSGLAVSDINPSHFTHLFCAFADLDPNTNKLTISSSNAAAFSTFTQTVRAKNPSVKTLLSIGGGGGRALAAVFANMASQASRRKSFIDSSIQLARRNNFHGLDLDWEYPSSDIDKTNFASLIREWRAAVATESSTSGTPALLLSAAVGGSDQITPLKYYPGEAIANNLDWVNVMTYDLYTSDSYPTLTQPPAPLFYPRGIFSADEGITKWIQSGVPESKLALGLPFYGFKWRLSDPNNHGLFAPATQGLGAVKYKDIVNTGGQVEFDSTYVTNYCFKGTDWYGYDDTQSISAKVAYAKQRGLFGYFAWHIEQDSNWALS"}},
  "test_in_all_cases": "glycan array binding signal (z-score within array); higher = stronger binding",
  "settings_in_all_cases": "glycan notation: IUPAC condensed, linker removed",
  "key": {"[1]": {"molecular_target": "Neu5Ac(a2-8)Neu5Ac", "in_short": "(§1)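 Glycan array data came from 3228 arrays in the Consortium for Functional Glycomics database, and only arrays with an available protein sequence were kept. Glycan names were put into IUPAC-condensed notation, and columns mapping to the same glycan were averaged. The binding signal is a within-array Z-score, averaged across arrays of one protein sequence run at different concentrations or buffers and across linkers. A negative Z-score can be read as non-binding.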"}, "[2]": {"molecular_target": "Neu5Ac(a2-8)Neu5Ac(a2-3)Gal(b1-3)GalNAc(b1-4)[Neu5Ac(a2-3)]Gal(b1-4)Glc", "in_short": "as §1"}, "[3]": {"molecular_target": "Neu5Ac(a2-8)Neu5Ac(a2-3)Gal(b1-3)GalNAc(b1-4)[Neu5Ac(a2-8)Neu5Ac(a2-3)]Gal(b1-4)Glc", "in_short": "as §1"}, "[4]": {"molecular_target": "Neu5Ac(a2-8)Neu5Ac(a2-3)Gal(b1-4)Glc", "in_short": "as §1"}, "[5]": {"molecular_target": "Neu5Ac(a2-8)Neu5Ac(a2-3)Gal(b1-4)GlcNAc", "in_short": "as §1"}, "[6]": {"molecular_target": "Neu5Ac(a2-8)Neu5Ac(a2-3)[Gal(b1-3)GalNAc(b1-4)]Gal(b1-4)Glc", "in_short": "as §1"}, "[7]": {"molecular_target": "Neu5Ac(a2-8)Neu5Ac(a2-3)[GalNAc(b1-4)]Gal(b1-4)Glc", "in_short": "as §1"}, "[8]": {"molecular_target": "Neu5Ac(a2-8)Neu5Ac(a2-8)Neu5Ac", "in_short": "as §1"}, "[9]": {"molecular_target": "Neu5Ac(a2-8)Neu5Ac(a2-8)Neu5Ac(a2-3)Gal(b1-4)Glc", "in_short": "as §1"}, "[10]": {"molecular_target": "Neu5Ac(a2-8)Neu5Ac(a2-8)Neu5Ac(a2-3)[Gal(b1-3)GalNAc(b1-4)]Gal(b1-4)Glc", "in_short": "as §1"}, "[11]": {"molecular_target": "Neu5Ac(a2-8)Neu5Ac(a2-8)Neu5Ac(a2-3)[GalNAc(b1-4)]Gal(b1-4)Glc", "in_short": "as §1"}, "[12]": {"molecular_target": "Neu5Ac(a2-8)Neu5Ac(a2-8)Neu5Ac(a2-8)Neu5Ac(a2-3)[GalNAc(b1-4)]Gal(b1-4)Glc", "in_short": "as §1"}, "[13]": {"molecular_target": "Neu5Ac(a2-8)Neu5Gc(a2-3)Gal(b1-4)GlcNAc", "in_short": "as §1"}, "[14]": {"molecular_target": "Neu5Ac(b2-6)Gal(b1-4)GlcNAc", "in_short": "as §1"}, "[15]": {"molecular_target": "Neu5Ac(b2-6)GalNAc", "in_short": "as §1"}, "[16]": {"molecular_target": "Neu5Ac9Ac(a2-3)Gal(b1-3)GlcNAc", "in_short": "as §1"}, "[17]": {"molecular_target": "Neu5Ac9Ac(a2-3)Gal(b1-4)GlcNAc", "in_short": "as §1"}, "[18]": {"molecular_target": "Neu5Ac9Ac(a2-6)Gal(b1-4)GlcNAc", "in_short": "as §1"}, "[19]": {"molecular_target": "Neu5Gc(a2-3)Gal(b1-3)GlcNAc", "in_short": "as §1"}, "[20]": {"molecular_target": "Neu5Gc(a2-3)Gal(b1-3)[Fuc(a1-4)]GlcNAc", "in_short": "as §1"}, "[21]": {"molecular_target": "Neu5Gc(a2-3)Gal(b1-4)Glc", "in_short": "as §1"}, "[22]": {"molecular_target": "Neu5Gc(a2-3)Gal(b1-4)GlcNAc", "in_short": "as §1"}, "[23]": {"molecular_target": "Neu5Gc(a2-3)Gal(b1-4)GlcNAc(b1-3)Gal(b1-4)GlcNAc(b1-2)Man(a1-3)[Neu5Gc(a2-3)Gal(b1-4)GlcNAc(b1-3)Gal(b1-4)GlcNAc(b1-2)Man(a1-6)]Man(b1-4)GlcNAc(b1-4)GlcNAc", "in_short": "as §1"}, "[24]": {"molecular_target": "Neu5Gc(a2-3)Gal(b1-4)[Fuc(a1-3)]GlcNAc", "in_short": "as §1"}, "[25]": {"molecular_target": "Neu5Gc(a2-6)Gal(b1-4)GlcNAc", "in_short": "as §1"}, "[26]": {"molecular_target": "Neu5Gc(a2-6)GalNAc", "in_short": "as §1"}, "[27]": {"molecular_target": "Neu5Gc(a2-8)Neu5Ac(a2-3)Gal(b1-4)GlcNAc", "in_short": "as §1"}, "[28]": {"molecular_target": "Neu5Gc(a2-8)Neu5Gc(a2-3)Gal(b1-4)GlcNAc", "in_short": "as §1"}, "[29]": {"molecular_target": "Neu5Gc(a2-8)Neu5Gc(a2-3)Gal(b1-4)GlcNAc(b1-3)Gal(b1-4)GlcNAc", "in_short": "as §1"}, "[30]": {"molecular_target": "Neu5Gc(a2-8)Neu5Gc(a2-6)Gal(b1-4)GlcNAc", "in_short": "as §1"}, "[31]": {"molecular_target": "Neu5Gc(b2-6)Gal(b1-4)GlcNAc", "in_short": "as §1"}},
  "note": "Some of the results follow.",
  "data": [
    {"binder": "B1", "values": [
      {"measurement": "glycan array binding signal (z-score)", "setting": "[1]", "result": -0.223},
      {"measurement": "glycan array binding signal (z-score)", "setting": "[2]", "result": -0.396},
      {"measurement": "glycan array binding signal (z-score)", "setting": "[3]", "result": -0.018},
      {"measurement": "glycan array binding signal (z-score)", "setting": "[4]", "result": -0.519},
      {"measurement": "glycan array binding signal (z-score)", "setting": "[5]", "result": -0.39},
      {"measurement": "glycan array binding signal (z-score)", "setting": "[6]", "result": 0.946},
      {"measurement": "glycan array binding signal (z-score)", "setting": "[7]", "result": -0.427},
      {"measurement": "glycan array binding signal (z-score)", "setting": "[8]", "result": 0.253},
      {"measurement": "glycan array binding signal (z-score)", "setting": "[9]", "result": -0.293},
      {"measurement": "glycan array binding signal (z-score)", "setting": "[10]", "result": -0.503},
      {"measurement": "glycan array binding signal (z-score)", "setting": "[11]", "result": 0.6},
      {"measurement": "glycan array binding signal (z-score)", "setting": "[12]", "result": -0.203},
      {"measurement": "glycan array binding signal (z-score)", "setting": "[13]", "result": -0.354},
      {"measurement": "glycan array binding signal (z-score)", "setting": "[14]", "result": 0.109},
      {"measurement": "glycan array binding signal (z-score)", "setting": "[15]", "result": -0.841},
      {"measurement": "glycan array binding signal (z-score)", "setting": "[16]", "result": -0.592},
      {"measurement": "glycan array binding signal (z-score)", "setting": "[17]", "result": -0.104},
      {"measurement": "glycan array binding signal (z-score)", "setting": "[18]", "result": -0.38},
      {"measurement": "glycan array binding signal (z-score)", "setting": "[19]", "result": -0.446},
      {"measurement": "glycan array binding signal (z-score)", "setting": "[20]", "result": -0.831},
      {"measurement": "glycan array binding signal (z-score)", "setting": "[21]", "result": -0.272},
      {"measurement": "glycan array binding signal (z-score)", "setting": "[22]", "result": -0.883},
      {"measurement": "glycan array binding signal (z-score)", "setting": "[23]", "result": 0.49},
      {"measurement": "glycan array binding signal (z-score)", "setting": "[24]", "result": -0.028},
      {"measurement": "glycan array binding signal (z-score)", "setting": "[25]", "result": -0.046},
      {"measurement": "glycan array binding signal (z-score)", "setting": "[26]", "result": -0.149},
      {"measurement": "glycan array binding signal (z-score)", "setting": "[27]", "result": 0.645},
      {"measurement": "glycan array binding signal (z-score)", "setting": "[28]", "result": -0.398},
      {"measurement": "glycan array binding signal (z-score)", "setting": "[29]", "result": -0.528},
      {"measurement": "glycan array binding signal (z-score)", "setting": "[30]", "result": -0.207},
      {"measurement": "glycan array binding signal (z-score)", "setting": "[31]", "result": 0.331}
    ]}
  ]
}
